Where two headings read alike, the source gives them in different places. For at least one entry, the source does not settle the construct or the ends of the probe. For some assays here: No signal at the amounts used counts as a negative. For some assays here: Where cells or extracts were used, other partners may take part. For some assays here: At least one verdict rests on a figure or table, not on a statement of the authors. For some assays here: The comparison behind a weaker result is the experiment's own reference, which may not be listed here. For some assays here: Tags and fusion partners may be left off the protein sequences shown.
What was measured:
[1] = target: PTBP1 (endogenous, long and short isoforms, HeLa) (Homo sapiens (HeLa)) (UniProt P26599); experiment: competition with a labelled probe; conditions: protein in an extract
[2] = target: 5xH-PTBP1 (UniProt P26599); experiment: EMSA; conditions: monomer and dimer
[3] = target: GST-PTBP1 (UniProt P26599); experiment: EMSA; conditions: dimer
[4] = target: GST-PTBP1 Y247Q delta N-terminus (UniProt P26599); experiment: EMSA
[5] = target: T1, GST-PTBP2 (UniProt Q9UKA9); experiment: EMSA; conditions: dimer
T1 sequence (looked up, limits assumed): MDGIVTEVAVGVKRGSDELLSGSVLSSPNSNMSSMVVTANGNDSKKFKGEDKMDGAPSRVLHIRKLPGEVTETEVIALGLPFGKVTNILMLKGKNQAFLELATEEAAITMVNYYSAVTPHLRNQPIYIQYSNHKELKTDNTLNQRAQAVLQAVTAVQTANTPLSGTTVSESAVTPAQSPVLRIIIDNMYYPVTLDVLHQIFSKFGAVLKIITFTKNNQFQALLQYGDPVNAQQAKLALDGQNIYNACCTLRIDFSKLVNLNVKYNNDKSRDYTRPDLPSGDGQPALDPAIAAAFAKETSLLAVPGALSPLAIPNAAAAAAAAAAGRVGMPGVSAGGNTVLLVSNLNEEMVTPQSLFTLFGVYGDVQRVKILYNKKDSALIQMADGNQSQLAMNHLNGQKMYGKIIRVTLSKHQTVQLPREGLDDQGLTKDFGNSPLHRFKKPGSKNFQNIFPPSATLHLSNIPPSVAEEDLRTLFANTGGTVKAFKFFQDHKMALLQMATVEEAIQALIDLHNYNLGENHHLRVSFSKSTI

Chains of the proteins cited; added tags and fusions are not shown. Lines headed by an entry give the natural chain unless they say otherwise; changes in a name come on top.
UniProt P26599: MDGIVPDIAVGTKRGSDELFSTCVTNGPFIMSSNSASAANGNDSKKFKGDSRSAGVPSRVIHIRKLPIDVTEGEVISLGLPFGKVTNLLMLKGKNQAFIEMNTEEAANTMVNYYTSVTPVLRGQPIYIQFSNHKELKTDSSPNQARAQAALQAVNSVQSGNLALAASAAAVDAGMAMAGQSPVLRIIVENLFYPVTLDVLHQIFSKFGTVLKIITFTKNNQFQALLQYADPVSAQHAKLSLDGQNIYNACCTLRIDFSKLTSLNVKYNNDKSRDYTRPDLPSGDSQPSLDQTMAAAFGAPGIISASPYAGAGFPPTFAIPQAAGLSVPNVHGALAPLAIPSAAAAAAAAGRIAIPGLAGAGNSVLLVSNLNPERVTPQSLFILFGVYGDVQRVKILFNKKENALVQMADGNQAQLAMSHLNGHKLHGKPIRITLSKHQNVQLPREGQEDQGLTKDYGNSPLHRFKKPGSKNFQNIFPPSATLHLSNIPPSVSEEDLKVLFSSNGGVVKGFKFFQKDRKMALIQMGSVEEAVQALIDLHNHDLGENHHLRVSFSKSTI
UniProt Q8TEQ6: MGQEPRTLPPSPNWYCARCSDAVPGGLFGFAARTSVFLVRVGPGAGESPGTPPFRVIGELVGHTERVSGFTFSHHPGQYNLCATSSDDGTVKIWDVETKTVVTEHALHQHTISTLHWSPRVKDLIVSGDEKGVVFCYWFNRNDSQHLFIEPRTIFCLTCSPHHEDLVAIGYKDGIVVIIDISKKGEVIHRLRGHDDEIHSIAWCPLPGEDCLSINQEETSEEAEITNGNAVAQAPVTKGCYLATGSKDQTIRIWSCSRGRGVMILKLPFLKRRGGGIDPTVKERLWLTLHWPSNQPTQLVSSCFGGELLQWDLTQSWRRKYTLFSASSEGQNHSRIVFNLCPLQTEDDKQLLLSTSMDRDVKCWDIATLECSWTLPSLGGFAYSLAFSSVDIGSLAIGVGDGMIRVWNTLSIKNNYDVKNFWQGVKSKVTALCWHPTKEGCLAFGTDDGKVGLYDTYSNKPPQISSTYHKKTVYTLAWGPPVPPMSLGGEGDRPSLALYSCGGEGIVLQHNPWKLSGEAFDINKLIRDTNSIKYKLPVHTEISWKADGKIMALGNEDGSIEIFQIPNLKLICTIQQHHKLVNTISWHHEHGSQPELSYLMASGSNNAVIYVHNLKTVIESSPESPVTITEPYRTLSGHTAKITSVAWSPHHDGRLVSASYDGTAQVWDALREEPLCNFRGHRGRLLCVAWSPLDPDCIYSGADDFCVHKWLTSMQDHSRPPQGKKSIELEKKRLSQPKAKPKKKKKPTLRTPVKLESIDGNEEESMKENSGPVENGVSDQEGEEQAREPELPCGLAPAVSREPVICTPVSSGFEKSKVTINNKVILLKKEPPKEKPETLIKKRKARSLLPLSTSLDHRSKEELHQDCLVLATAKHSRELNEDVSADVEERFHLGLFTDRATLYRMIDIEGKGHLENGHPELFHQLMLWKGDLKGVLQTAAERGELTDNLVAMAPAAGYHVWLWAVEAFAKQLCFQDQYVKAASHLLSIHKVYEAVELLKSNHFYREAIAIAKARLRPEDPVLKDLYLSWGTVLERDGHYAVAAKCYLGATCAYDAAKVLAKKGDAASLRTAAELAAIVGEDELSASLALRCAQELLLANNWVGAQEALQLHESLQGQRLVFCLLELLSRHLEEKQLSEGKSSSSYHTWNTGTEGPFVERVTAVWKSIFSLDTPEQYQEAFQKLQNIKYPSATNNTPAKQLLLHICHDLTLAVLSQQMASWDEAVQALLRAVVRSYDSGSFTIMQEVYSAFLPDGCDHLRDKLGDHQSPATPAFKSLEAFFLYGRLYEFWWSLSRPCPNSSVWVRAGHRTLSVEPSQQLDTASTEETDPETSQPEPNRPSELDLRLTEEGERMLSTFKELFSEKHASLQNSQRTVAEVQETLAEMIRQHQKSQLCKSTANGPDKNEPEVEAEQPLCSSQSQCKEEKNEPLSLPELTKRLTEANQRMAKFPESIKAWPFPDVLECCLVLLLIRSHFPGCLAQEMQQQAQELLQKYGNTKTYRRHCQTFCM
UniProt O00425, whole entry: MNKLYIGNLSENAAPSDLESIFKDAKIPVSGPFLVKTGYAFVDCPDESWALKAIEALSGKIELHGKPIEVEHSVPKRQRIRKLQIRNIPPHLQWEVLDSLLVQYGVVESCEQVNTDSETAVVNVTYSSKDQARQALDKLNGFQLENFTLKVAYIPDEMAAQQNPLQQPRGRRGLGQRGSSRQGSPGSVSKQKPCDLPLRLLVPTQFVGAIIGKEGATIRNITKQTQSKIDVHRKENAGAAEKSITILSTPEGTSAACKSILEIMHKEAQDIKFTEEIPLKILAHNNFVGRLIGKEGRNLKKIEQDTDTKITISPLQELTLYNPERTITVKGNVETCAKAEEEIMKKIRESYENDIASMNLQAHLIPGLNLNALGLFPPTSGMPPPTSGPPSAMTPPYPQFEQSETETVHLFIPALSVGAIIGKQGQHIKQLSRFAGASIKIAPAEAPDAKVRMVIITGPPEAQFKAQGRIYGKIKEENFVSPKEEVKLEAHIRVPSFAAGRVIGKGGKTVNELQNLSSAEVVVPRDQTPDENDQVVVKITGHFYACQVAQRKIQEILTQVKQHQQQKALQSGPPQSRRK

[6] = tested on: GST-hnRNP A1; experiment: EMSA
[7] = target: Gemin5 (endogenous, HeLa) (Homo sapiens (HeLa)) (UniProt Q8TEQ6); experiment: EMSA; conditions: protein in an extract
[8] = target: PTBP1 (endogenous, long and short isoforms, HeLa) (Homo sapiens (HeLa)) (UniProt P26599); experiment: EMSA; conditions: HeLa cytoplasmic extract; protein in an extract
[9] = target: PTBP1 long isoform (TnT) (UniProt P26599); experiment: EMSA; conditions: protein translated in vitro
[10] = tested on: PTBP1 short isoform (TnT); experiment: EMSA; conditions: protein translated in vitro
[11] = target: T2, PTBP2 (TnT) (UniProt Q9UKA9); experiment: EMSA; conditions: protein translated in vitro
T2 sequence (looked up, limits assumed): T1 sequence (looked up, limits assumed)

[12] = tested on: hnRNP A1 (TnT); experiment: EMSA; conditions: protein translated in vitro
[13] = tested on: GST-PTBP1 + hnRNP A1 (endogenous, HeLa); experiment: pull-down; conditions: ternary complex on GSH beads, HeLa nuclear extract
[14] = tested on: GST-PTBP2 + hnRNP A1 (endogenous, HeLa); experiment: pull-down; conditions: ternary complex on GSH beads, HeLa nuclear extract
[15] = target: Gemin5 (endogenous, HeLa) (Homo sapiens (HeLa)) (UniProt Q8TEQ6); experiment: pull-down; conditions: HeLa cytoplasmic extract; protein in an extract
[16] = target: Gemin5 (endogenous, SH-SY5Y) (Homo sapiens (SH-SY5Y)) (UniProt Q8TEQ6); experiment: pull-down; conditions: SH-SY5Y lysate; protein in an extract
[17] = target: IGF2BP3 (endogenous, HeLa) (Homo sapiens (HeLa)) (UniProt O00425); experiment: pull-down; conditions: protein in an extract
[18] = target: PTBP1 (endogenous, SH-SY5Y) (Homo sapiens (SH-SY5Y)) (UniProt P26599); experiment: pull-down; conditions: SH-SY5Y lysate; protein in an extract
[19] = target: PTBP1 (endogenous, long and short isoforms, HeLa) (Homo sapiens (HeLa)) (UniProt P26599); experiment: pull-down; conditions: protein in an extract
[20] = tested on: hnRNP A1 (endogenous, HeLa) (Homo sapiens (HeLa)); experiment: pull-down; conditions: protein in an extract
[21] = target: 5xH-PTBP1 (UniProt P26599); experiment: UV cross-linking; conditions: 80 and 160 kDa species
[22] = target: PTBP1 (TnT, isoform not stated for this lane) (UniProt P26599); experiment: UV cross-linking; conditions: monomer, ~80 kDa; protein translated in vitro
[23] = tested on: hnRNP A1 (endogenous, HeLa) (Homo sapiens (HeLa)); experiment: EMSA; conditions: lost with AG and CU oligonucleotides together; protein in an extract
[24] = target: IGF2BP3 (endogenous, HeLa) (Homo sapiens (HeLa)) (UniProt O00425); experiment: competition with a labelled probe; conditions: U7/WT binding virtually unaffected; protein in an extract
[25] = tested on: hnRNP A1 (endogenous, HeLa) (Homo sapiens (HeLa)); experiment: competition with a labelled probe; conditions: protein in an extract
[26] = HeLa cytoplasmic extract, 7.5 ug RNA

Does CAGUGUUACAGCUCUUUUAG [5' U7 (20-mer)] bind ([1]; partially inhibits U7/WT complex)?
Result: binds more weakly

What does the source list for “CAGUGUUACAGCUCUUUUAGAAUUUGUCUAGUAGGCUUUCUGGCUUUUUACCGGAAAGCCCCUCUUAUG [U7/WT]”?
binding result [2]: binds; binding result [3]: binds; binding result ([4]; dimer): binds; binding result [5]: binds; binding result [6]: binds; binding result ([7]; with excess CU oligonucleotide sequestering PTBP1): binds; binding result [8]: binds; binding result [9]: binds; binding result [10]: binds; binding result [11]: binds; binding result [12]: binds; binding result [13]: binds; binding result [14]: binds; binding result [15]: no binding; binding result [16]: no binding; binding result ([17]; HeLa cytoplasmic extract): binds; binding result [18]: binds; binding result ([19]; HeLa cytoplasmic extract): binds; binding result ([19]; HeLa nuclear extract): binds; binding result ([20]; HeLa cytoplasmic extract): binds; binding result [21]: binds; binding result [22]: binds

Does “CAGUGUUACAGCUCUUUUAGAAUUUUUGGAGUAGGCUUUCUGGCUUUUUACCGGAAAGCCCCUCUUAUG [U7/SPL]” bind ([7]; supershifted by anti-Gemin5, HeLa cytoplasmic extract)?
Result: binds

Does “CAGUGUUACAGCUCUUUUAGAAUUUUUGGAGUAGGCUUUCUGGCUUUUUACCGGAAAGCCCCUCUUAUG [U7/SPL]” bind [8]?
Result: binds more weakly

Does “CAGUGUUACAGCUCUUUUAGAAUUUUUGGAGUAGGCUUUCUGGCUUUUUACCGGAAAGCCCCUCUUAUG [U7/SPL]” bind [15]?
Result: binds

Does “CAGUGUUACAGCUCUUUUAGAAUUUUUGGAGUAGGCUUUCUGGCUUUUUACCGGAAAGCCCCUCUUAUG [U7/SPL]” bind ([17]; 7.5 ug RNA)?
Result: binds more weakly

Does “CAGUGUUACAGCUCUUUUAGAAUUUUUGGAGUAGGCUUUCUGGCUUUUUACCGGAAAGCCCCUCUUAUG [U7/SPL]” bind ([17]; limiting RNA (750 ng))?
Result: no binding

Does “CAGUGUUACAGCUCUUUUAGAAUUUUUGGAGUAGGCUUUCUGGCUUUUUACCGGAAAGCCCCUCUUAUG [U7/SPL]” bind [19, 26]?
Result: binds more weakly

Does “CAGUGUUACAGCUCUUUUAGAAUUUUUGGAGUAGGCUUUCUGGCUUUUUACCGGAAAGCCCCUCUUAUG [U7/SPL]” bind ([19]; HeLa cytoplasmic extract, limiting RNA (750 ng))?
Result: no binding

Does “CAGUGUUACAGCUCUUUUAGAAUUUUUGGAGUAGGCUUUCUGGCUUUUUACCGGAAAGCCCCUCUUAUG [U7/SPL]” bind ([19]; HeLa nuclear extract, difference by silver stain only)?
Result: binds more weakly

Does “CAGUGUUACAGCUCUUUUAGAAUUUUUGGAGUAGGCUUUCUGGCUUUUUACCGGAAAGCCCCUCUUAUG [U7/SPL]” bind ([20]; same or higher than U7/WT)?
Result: binds

Does “CAGUGUUACAGCUCUUUUAGAAUUUUUGGAGUAGGCUUUCUGGCUUUUUACCGGAAAGCCCCUCUUAUG [U7/SPL]” bind ([1]; 500-fold excess U7/SPL does not eliminate U7/WT complex)?
Result: binds more weakly

Does “CAGUGUUACAGCUCUUUUGAAAUUUGUCUGAUAGGCUUUCUGGCUUUUUACCGGAAAGCCCCUCUUAUG [U7/2xGA]” bind ([20]; HeLa cytoplasmic extract)?
Result: binds more weakly

Does “CAGUGUUACAGGAGAUUUAGAAUUUGUCUAGUAGGCUUUCUGGCUUUUUACCGGAAAGCCCCUCUUAUG [U7/PU]” bind ([7]; HeLa cytoplasmic extract)?
Result: no binding

Does “CAGUGUUACAGGAGAUUUAGAAUUUGUCUAGUAGGCUUUCUGGCUUUUUACCGGAAAGCCCCUCUUAUG [U7/PU]” bind [8]?
Result: no binding

Does “CAGUGUUACAGGAGAUUUAGAAUUUGUCUAGUAGGCUUUCUGGCUUUUUACCGGAAAGCCCCUCUUAUG [U7/PU]” bind [15]?
Result: no binding

Does “CAGUGUUACAGGAGAUUUAGAAUUUGUCUAGUAGGCUUUCUGGCUUUUUACCGGAAAGCCCCUCUUAUG [U7/PU]” bind ([17]; 7.5 ug RNA)?
Result: binds more weakly

Does “CAGUGUUACAGGAGAUUUAGAAUUUGUCUAGUAGGCUUUCUGGCUUUUUACCGGAAAGCCCCUCUUAUG [U7/PU]” bind [19, 26]?
Result: binds more weakly

Does “CAGUGUUACAGGAGAUUUAGAAUUUGUCUAGUAGGCUUUCUGGCUUUUUACCGGAAAGCCCCUCUUAUG [U7/PU]” bind ([20]; higher than U7/WT)?
Result: binds

Does “CAGUGUUACAGGAGAUUUAGAAUUUUUGGAGUAGGCUUUCUGGCUUUUUACCGGAAAGCCCCUCUUAUG [U7/2xMut]” bind [4]?
Result: no binding

Does “CAGUGUUACAGGAGAUUUAGAAUUUUUGGAGUAGGCUUUCUGGCUUUUUACCGGAAAGCCCCUCUUAUG [U7/2xMut]” bind [6]?
Result: binds

Does “CAGUGUUACAGGAGAUUUAGAAUUUUUGGAGUAGGCUUUCUGGCUUUUUACCGGAAAGCCCCUCUUAUG [U7/2xMut]” bind ([7]; HeLa cytoplasmic extract)?
Result: binds

Does “CAGUGUUACAGGAGAUUUAGAAUUUUUGGAGUAGGCUUUCUGGCUUUUUACCGGAAAGCCCCUCUUAUG [U7/2xMut]” bind [23]?
Result: binds

Does “CAGUGUUACAGGAGAUUUAGAAUUUUUGGAGUAGGCUUUCUGGCUUUUUACCGGAAAGCCCCUCUUAUG [U7/2xMut]” bind [16]?
Result: binds

Does “CAGUGUUACAGGAGAUUUAGAAUUUUUGGAGUAGGCUUUCUGGCUUUUUACCGGAAAGCCCCUCUUAUG [U7/2xMut]” bind ([17]; virtually eliminated)?
Result: no binding

Does “CAGUGUUACAGGAGAUUUAGAAUUUUUGGAGUAGGCUUUCUGGCUUUUUACCGGAAAGCCCCUCUUAUG [U7/2xMut]” bind ([20]; same or higher than U7/WT)?
Result: binds

Does CUCUCUCUCUUUCUUU [CU oligonucleotide] bind [24]?
Result: no binding

Does CUCUCUCUCUUUCUUU [CU oligonucleotide] bind ([1]; inhibits U7/WT complex)?
Result: binds

Does CUCUCUCUCUUUCUUU [CU oligonucleotide] bind ([25]; U7/WT binding virtually unaffected)?
Result: no binding

Which results are given for “UAUGAUAGGGACUUAGGGUG [AG (UAG) oligonucleotide]”?
binding result ([1]; no effect on PTBP1 binding to U7/WT): no binding; binding result ([25]; prevents binding to U7/WT): binds

Does “UGAAAAUUUUUAUUCUCUUUGAAAUUUGUCUUGGUGGGACCCUUUGUCUAGGCAUUGAGUGUUCCCGUU [Dm U7]” bind [15]?
Result: binds

Does “UGAAAAUUUUUAUUCUCUUUGAAAUUUGUCUUGGUGGGACCCUUUGUCUAGGCAUUGAGUGUUCCCGUU [Dm U7]” bind ([17]; HeLa cytoplasmic extract)?
Result: no binding

Does “UGAAAAUUUUUAUUCUCUUUGAAAUUUGUCUUGGUGGGACCCUUUGUCUAGGCAUUGAGUGUUCCCGUU [Dm U7]” bind ([19]; HeLa cytoplasmic extract, exceeds U7/WT)?
Result: binds

Does “UGAAAAUUUUUAUUCUCUUUGAAAUUUGUCUUGGUGGGACCCUUUGUCUAGGCAUUGAGUGUUCCCGUU [Dm U7]” bind ([20]; HeLa cytoplasmic extract)?
Result: no binding

Source: publication doi:10.1101/2023.08.19.553944
